According to patent US11123350B2, “Metal delivery agents and therapeutic uses of the same” (THE UNIVERSITY OF MELBOURNE, priority 2006, dated 2021):
At least one structure is not confirmed: it was looked up by name or label, or the drawing left a doubt.

Experiments:
Aβ1-40 = assay: Extracellular Aβ1-40 in conditioned medium of APP-CHO cells (ELISA); assay type: cell-based, Chinese Hamster; conditions: 25 μM inhibitor with 10 μM [Zn(ATSE)], 6 hr
Protocol: (§1) […] treatment regimes were used namely a control, 1 μM, 5 μM, 10 μM, 25 μM and 50 μM (FIG. 3). APP-transfected CHO cells were treated with each of the doses of [Cu(GTSM)] for 6 hr in serum-free medium and conditioned medium was then collected and assayed for Aβ1-40 peptide by routine Aβ3 ELISA.
as §1, with “? M,” for “μM,”, “? M” for “μM”, “4).” for “3).”, “[Zn(BTSC)]” for “[Cu(GTSM)]”, “Aβ” for “Aβ3”, “ELISA. […]” for “ELISA.”
Double antibody capture enzyme-linked immunosorbent assay (ELISA) for Aβ detection. Aβ levels were determined in culture medium using the 384 well Aβ1-40 ELISA protocol. […] To develop the plates 80 μL of enhancement solution was added to each well and plates were read in a WALLAC Victor^2 plate reader with excitation (Ex) at 340 nm and emission (Em) at 613 nm. […] The values obtained from the triplicate wells were used to calculate the […] concentration (expressed as ng/mL) based on the standard curve generated on each plate and are given in Table 3.
APP-CHO cells were treated with 10 μM [Zn(ATSE)] with or without specific inhibitors of PI3K (LY294002), JNK (SP600125) or p38 (SB203580) (25 μM of each) for 6 hr and conditioned medium analyzed for levels of Aβ1-40 by routine ELISA.

G93A-SOD1 mice = conditions: other reported pharmacological treatments (literature); cited from earlier work

SMILES | effect of kinase inhibitor on the loss of Aβ by [Zn(ATSE)] (Aβ1-40) | Increased Life Span (G93A-SOD1 mice) [days]
O=c1cc(N2CCOCC2)oc2c(-c3ccccc3)cccc12 [LY294002, reference compound] | prevented the loss of Aβ | –
CN(C)c1ccc(O)c2c1C[C@H]1C[C@H]3[C@H](N(C)C)C(O)=C(C(N)=O)C(=O)[C@@]3(O)C(O)=C1C2=O [Minocycline] | – | 11 to 21
Oc1c2ccccc2c2c3c(cccc13)N=N2 [SP600125, reference compound] | prevented the loss of Aβ | –
